Measured values reported in paper PMC9166763.
Results are given in words; binding and its absence hold for the method and conditions named. In cells and extracts the contact can be indirect. Some binding calls cover weakened binding; strength is not graded here.

Chains of the proteins cited; added tags and fusions are not shown. Residues count along the entry.
UniProt P20029, residues 20-655: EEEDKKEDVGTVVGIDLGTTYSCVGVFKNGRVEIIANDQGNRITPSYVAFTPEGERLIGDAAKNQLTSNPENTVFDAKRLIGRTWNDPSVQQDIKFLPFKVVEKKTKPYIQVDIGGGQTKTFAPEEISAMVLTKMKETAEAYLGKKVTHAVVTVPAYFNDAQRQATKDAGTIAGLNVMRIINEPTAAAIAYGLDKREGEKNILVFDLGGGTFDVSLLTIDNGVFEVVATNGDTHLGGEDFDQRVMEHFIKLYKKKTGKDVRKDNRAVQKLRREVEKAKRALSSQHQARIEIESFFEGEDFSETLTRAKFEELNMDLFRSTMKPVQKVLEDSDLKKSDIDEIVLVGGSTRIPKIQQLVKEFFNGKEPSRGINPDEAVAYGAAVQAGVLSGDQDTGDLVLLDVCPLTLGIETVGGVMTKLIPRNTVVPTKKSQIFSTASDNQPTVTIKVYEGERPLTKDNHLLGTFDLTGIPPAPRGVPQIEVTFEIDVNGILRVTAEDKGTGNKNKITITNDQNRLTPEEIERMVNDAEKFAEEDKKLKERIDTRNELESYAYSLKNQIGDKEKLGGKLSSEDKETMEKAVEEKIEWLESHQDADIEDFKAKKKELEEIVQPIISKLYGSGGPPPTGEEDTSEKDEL

T1: Caspase 7, mouse, endogenous (mouse (endogenous in kidney and primary RTECs)) (UniProt P97864)
T1 sequence: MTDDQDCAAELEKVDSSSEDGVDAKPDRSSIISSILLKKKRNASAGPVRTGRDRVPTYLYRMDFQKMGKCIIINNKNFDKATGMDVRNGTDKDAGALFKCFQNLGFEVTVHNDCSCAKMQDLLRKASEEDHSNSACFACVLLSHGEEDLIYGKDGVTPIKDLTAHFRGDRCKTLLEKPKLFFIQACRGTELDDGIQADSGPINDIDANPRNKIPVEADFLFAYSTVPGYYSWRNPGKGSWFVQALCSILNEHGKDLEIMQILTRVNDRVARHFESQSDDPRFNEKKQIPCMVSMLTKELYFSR

B1: Caspase 7, mouse, endogenous (enzyme, UniProt P97864 1-303)
chain: T1 sequence

Assays:
[1] = biological target: T1, Caspase 7, mouse, endogenous (mouse (endogenous in kidney and primary RTECs)); test: co-IP; lysate of HG-induced RTECs after transfection of DcR2 siRNA or DcR2 overexpression plasmid; endogenous GRP78 and caspase 7, reciprocal; western blot
[2] = biological target: T1, Caspase 7, mouse, endogenous (mouse (endogenous in kidney and primary RTECs)); test: co-IP; renal tissue of STZ-DN mice lysed in IP lysis buffer; antibody on protein A or G magnetic beads, lysate overnight at 4 °C; western blot; endogenous proteins, reciprocal
[3] = biological target: Glucose-related protein 78 kDa (GRP78), mouse, endogenous (mouse (endogenous in kidney and primary RTECs)) (UniProt P20029); test: co-IP; lysate of HG-induced RTECs after transfection of DcR2 siRNA or DcR2 overexpression plasmid; endogenous GRP78 and caspase 7, reciprocal; western blot
[4] = biological target: Glucose-related protein 78 kDa (GRP78), mouse, endogenous (mouse (endogenous in kidney and primary RTECs)) (UniProt P20029); test: co-IP; renal tissue of STZ-DN mice lysed in IP lysis buffer; antibody on protein A or G magnetic beads, lysate overnight at 4 °C; western blot; endogenous proteins, reciprocal

Molecule	binding [1]	binding [2]	binding [3]	binding [4]
Glucose-related protein 78 kDa (GRP78), mouse, endogenous (from UniProt P20029 20-655)	binds	binds	–	–
B1	–	–	binds	binds
